Measurements reported in PubChem BioAssay AID1259425 (University of Nebraska Medical Center, 2018)
In all, the deposit lists about 14,000 reagents; below is a random part of them. Further read-outs or replicates are left out here. Not given: the time to read-out.

Aim: 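Find knockdowns that reproduce the gene expression pattern seen when KSR1 is lost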 (primary screen)
Cell system: HCT116 human colon cancer cells
Knock-down reagent: siRNA pool against human genes, 50 nM siRNA
Measurement: 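mRNA of six signature genes measured together by branched-DNA assay after 50 nM siRNA pool, blank removed, divided by geometric mean of two housekeeping genes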
Direction: BNIP3L mRNA: higher = more BNIP3L transcript after knockdown

After knock-down of LCN2 [SID363996464] the results were BNIP3L mRNA, set 1 = 0.108. After knock-down of HR [SID363996075], the record shows BNIP3L mRNA, set 1 = 0.0958. Silencing of HTR3B [SID363996879] resulted in: BNIP3L mRNA, set 1 = 0.247. Silencing of RRBP1 [SID363995558] resulted in: BNIP3L mRNA, set 1 = 0.137. Knock-down of ARL1 [SID363992468] resulted in: BNIP3L mRNA, set 1 = 0.126. Against SLC25A36 [SID364000831], the entry reads BNIP3L mRNA, set 1 = 0.131.

DEK [SID363994571] showed BNIP3L mRNA, set 1 = 0.0957. Against PIEZO1 [SID363999075] the deposit lists BNIP3L mRNA, set 1 = 0.0128. For NPPB [SID363993693] the deposit lists BNIP3L mRNA, set 1 = 0.117. Knock-down of TINAG [SID363998876] came out at: BNIP3L mRNA, set 1 = 0.121. Knock-down of PRR12 [SID364005181] came out at: BNIP3L mRNA, set 1 = 0.07. Knock-down of C8orf17 [SID364001582] resulted in: BNIP3L mRNA, set 1 = 0.306.

Silencing of TRIM3 [SID363997266] resulted in: BNIP3L mRNA, set 1 = 0.113. Silencing of SLC2A2 [SID363991672] came out at: BNIP3L mRNA, set 1 = 0.0826. Against PRAMEF2 [SID364002620], the entry reads BNIP3L mRNA, set 1 = 0.238. For APBA3 [SID363995836], the entry reads BNIP3L mRNA, set 1 = 0.113. For HSP90AB1 [SID363997997], the values are BNIP3L mRNA, set 1 = 0.0716. Knock-down of ANKS1B [SID364001501] resulted in: BNIP3L mRNA, set 1 = 0.176.

Silencing of BCKDHB [SID363991394] came out at: BNIP3L mRNA, set 1 = 0.141. Knock-down of ZNF235 [SID363995233] gave: BNIP3L mRNA, set 1 = 0.0951. With knock-down of PPFIA2 [SID363994701], the screen gave BNIP3L mRNA, set 1 = 0.0619. After knock-down of OR8B8 [SID363998268], the screen gave BNIP3L mRNA, set 1 = 0.308. After knock-down of PLEK2 [SID364000110], the screen gave BNIP3L mRNA, set 1 = 0.102. ARC [SID363999356] scored BNIP3L mRNA, set 1 = 0.218.

After knock-down of GPR27 [SID364001295] the results were BNIP3L mRNA, set 1 = 0.443. SKAP1 [SID363994794] gave BNIP3L mRNA, set 1 = 0.101. With knock-down of LIPF [SID363995194], the screen gave BNIP3L mRNA, set 1 = 0.0699. Against HIVEP3 [SID364002827] the deposit lists BNIP3L mRNA, set 1 = 0.26.
